Laboratory results reported in the supplement of paper PMC10849652.
The other results are listed elsewhere or left out.

Chains of the proteins cited; added tags and fusions are not shown. Lines headed by an entry give the natural chain unless they say otherwise; changes in a name come on top.
UniProt Q9H0F7: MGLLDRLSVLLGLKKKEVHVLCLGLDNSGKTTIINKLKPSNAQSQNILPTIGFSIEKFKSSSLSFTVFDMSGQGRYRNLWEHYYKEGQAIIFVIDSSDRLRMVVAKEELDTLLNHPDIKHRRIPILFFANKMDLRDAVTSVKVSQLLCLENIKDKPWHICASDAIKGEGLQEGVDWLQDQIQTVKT
UniProt P14415, whole entry, looked up: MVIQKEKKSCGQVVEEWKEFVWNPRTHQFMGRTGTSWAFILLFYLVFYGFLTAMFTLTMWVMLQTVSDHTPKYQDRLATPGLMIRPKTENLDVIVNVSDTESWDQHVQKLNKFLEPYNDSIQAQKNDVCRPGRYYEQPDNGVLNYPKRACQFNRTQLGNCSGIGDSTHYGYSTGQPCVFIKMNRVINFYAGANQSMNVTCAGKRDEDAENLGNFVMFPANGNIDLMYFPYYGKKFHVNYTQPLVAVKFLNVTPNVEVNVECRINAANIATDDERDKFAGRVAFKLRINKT
UniProt Q2TAZ0: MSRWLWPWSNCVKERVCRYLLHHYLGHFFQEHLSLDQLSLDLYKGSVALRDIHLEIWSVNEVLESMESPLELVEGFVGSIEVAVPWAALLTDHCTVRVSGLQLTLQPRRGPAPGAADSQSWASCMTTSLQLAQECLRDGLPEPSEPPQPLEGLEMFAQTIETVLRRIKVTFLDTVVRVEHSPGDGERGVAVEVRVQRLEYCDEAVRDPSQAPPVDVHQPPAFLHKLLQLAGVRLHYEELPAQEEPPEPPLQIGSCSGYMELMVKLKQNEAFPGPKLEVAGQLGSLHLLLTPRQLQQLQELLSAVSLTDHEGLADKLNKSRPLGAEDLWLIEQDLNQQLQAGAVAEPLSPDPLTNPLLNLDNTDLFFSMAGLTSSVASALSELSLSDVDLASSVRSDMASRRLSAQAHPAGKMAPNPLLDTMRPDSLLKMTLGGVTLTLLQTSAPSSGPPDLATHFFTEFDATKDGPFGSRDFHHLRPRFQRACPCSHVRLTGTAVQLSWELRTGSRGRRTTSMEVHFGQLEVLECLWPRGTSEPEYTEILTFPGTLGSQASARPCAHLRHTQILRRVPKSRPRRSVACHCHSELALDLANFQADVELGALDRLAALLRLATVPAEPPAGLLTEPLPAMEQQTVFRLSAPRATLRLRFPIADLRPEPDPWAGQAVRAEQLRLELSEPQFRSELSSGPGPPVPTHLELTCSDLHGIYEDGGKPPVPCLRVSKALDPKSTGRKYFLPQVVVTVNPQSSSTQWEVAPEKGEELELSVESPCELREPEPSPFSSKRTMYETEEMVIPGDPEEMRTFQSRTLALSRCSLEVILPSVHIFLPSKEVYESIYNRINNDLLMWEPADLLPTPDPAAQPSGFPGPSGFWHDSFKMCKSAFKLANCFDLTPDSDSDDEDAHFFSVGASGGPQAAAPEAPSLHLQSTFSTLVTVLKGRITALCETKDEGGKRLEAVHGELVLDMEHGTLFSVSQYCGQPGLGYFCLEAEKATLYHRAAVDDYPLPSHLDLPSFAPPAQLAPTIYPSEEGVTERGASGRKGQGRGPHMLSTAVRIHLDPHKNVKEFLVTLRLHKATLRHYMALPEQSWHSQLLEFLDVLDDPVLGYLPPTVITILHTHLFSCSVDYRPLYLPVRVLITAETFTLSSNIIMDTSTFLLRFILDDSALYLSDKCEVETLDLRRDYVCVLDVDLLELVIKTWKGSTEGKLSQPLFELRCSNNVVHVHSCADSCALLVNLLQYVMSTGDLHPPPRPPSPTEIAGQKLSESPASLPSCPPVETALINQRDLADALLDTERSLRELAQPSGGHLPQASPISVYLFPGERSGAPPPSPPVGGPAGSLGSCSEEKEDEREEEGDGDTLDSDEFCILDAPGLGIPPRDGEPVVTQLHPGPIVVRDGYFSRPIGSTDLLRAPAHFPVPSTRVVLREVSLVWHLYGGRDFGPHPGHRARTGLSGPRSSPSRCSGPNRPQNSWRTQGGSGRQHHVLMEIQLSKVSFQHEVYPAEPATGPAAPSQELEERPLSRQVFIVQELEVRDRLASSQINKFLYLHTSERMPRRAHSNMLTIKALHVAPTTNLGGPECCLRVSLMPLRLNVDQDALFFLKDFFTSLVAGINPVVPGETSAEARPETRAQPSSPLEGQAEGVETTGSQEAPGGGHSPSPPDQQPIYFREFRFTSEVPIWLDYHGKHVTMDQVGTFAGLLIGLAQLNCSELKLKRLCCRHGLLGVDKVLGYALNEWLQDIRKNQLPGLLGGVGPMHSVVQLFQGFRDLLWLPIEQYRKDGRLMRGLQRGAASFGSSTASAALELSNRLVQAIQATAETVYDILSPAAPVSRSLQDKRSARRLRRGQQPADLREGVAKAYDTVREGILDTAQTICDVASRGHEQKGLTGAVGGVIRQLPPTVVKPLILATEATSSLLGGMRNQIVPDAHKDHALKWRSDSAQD
UniProt P56211: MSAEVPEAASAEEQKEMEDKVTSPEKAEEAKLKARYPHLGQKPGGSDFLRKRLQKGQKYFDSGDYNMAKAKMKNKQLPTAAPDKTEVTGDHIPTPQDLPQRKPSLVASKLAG
UniProt Q6UWY0: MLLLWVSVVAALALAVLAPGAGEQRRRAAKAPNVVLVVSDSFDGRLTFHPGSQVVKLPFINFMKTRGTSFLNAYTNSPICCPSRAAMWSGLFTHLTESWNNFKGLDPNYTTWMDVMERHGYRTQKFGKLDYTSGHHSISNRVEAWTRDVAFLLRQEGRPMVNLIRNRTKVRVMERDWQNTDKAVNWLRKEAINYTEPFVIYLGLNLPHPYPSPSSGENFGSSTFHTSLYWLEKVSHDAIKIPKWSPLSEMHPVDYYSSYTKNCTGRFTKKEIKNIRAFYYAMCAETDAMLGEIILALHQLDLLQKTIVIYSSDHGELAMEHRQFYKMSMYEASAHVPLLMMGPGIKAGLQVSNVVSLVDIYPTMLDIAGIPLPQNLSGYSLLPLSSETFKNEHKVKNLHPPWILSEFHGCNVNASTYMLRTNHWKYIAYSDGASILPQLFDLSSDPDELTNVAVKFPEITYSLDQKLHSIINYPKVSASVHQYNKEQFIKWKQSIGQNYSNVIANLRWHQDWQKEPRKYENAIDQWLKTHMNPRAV
UniProt P49407: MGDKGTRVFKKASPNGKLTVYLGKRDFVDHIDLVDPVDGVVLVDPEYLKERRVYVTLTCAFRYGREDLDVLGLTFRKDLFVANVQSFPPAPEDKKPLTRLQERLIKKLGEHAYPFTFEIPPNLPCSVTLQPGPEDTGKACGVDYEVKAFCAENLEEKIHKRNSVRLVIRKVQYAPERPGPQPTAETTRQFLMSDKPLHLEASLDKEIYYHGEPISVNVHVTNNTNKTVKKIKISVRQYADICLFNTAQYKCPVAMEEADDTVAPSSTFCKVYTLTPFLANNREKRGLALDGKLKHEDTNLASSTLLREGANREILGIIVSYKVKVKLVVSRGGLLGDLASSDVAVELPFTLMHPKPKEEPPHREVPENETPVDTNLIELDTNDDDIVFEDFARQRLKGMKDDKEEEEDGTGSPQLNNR
UniProt P15289: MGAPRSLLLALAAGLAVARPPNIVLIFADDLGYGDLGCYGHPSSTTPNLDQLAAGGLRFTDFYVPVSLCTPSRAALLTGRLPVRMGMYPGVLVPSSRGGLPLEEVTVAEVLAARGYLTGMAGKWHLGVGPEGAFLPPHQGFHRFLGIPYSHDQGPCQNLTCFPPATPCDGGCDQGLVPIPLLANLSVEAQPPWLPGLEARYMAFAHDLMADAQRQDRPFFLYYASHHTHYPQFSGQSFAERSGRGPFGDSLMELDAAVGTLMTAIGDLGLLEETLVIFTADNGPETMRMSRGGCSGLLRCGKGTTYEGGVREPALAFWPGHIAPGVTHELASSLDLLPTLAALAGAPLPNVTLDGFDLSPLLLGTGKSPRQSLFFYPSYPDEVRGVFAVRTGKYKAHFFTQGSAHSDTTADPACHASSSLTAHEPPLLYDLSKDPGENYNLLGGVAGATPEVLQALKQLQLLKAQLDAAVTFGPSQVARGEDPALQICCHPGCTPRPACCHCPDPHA
UniProt Q3SXY8: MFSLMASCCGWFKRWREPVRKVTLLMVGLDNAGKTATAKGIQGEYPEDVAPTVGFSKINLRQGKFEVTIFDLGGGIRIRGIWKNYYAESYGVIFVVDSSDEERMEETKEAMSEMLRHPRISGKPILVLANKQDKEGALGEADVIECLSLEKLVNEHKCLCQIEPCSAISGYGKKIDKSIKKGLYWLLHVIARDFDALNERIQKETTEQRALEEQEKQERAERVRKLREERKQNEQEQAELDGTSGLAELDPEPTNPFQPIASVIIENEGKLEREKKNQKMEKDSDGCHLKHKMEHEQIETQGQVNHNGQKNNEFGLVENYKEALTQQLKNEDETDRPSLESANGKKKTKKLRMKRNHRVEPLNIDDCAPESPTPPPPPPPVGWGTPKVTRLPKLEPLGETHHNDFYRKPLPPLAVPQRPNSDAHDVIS
UniProt P54709, whole entry, looked up: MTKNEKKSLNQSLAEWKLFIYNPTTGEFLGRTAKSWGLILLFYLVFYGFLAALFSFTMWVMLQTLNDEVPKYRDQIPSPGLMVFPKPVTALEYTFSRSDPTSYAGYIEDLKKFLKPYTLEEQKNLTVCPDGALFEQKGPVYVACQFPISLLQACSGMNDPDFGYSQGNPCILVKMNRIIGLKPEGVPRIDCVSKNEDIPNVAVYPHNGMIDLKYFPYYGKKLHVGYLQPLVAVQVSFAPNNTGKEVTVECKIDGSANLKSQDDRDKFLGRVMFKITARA
UniProt P35670: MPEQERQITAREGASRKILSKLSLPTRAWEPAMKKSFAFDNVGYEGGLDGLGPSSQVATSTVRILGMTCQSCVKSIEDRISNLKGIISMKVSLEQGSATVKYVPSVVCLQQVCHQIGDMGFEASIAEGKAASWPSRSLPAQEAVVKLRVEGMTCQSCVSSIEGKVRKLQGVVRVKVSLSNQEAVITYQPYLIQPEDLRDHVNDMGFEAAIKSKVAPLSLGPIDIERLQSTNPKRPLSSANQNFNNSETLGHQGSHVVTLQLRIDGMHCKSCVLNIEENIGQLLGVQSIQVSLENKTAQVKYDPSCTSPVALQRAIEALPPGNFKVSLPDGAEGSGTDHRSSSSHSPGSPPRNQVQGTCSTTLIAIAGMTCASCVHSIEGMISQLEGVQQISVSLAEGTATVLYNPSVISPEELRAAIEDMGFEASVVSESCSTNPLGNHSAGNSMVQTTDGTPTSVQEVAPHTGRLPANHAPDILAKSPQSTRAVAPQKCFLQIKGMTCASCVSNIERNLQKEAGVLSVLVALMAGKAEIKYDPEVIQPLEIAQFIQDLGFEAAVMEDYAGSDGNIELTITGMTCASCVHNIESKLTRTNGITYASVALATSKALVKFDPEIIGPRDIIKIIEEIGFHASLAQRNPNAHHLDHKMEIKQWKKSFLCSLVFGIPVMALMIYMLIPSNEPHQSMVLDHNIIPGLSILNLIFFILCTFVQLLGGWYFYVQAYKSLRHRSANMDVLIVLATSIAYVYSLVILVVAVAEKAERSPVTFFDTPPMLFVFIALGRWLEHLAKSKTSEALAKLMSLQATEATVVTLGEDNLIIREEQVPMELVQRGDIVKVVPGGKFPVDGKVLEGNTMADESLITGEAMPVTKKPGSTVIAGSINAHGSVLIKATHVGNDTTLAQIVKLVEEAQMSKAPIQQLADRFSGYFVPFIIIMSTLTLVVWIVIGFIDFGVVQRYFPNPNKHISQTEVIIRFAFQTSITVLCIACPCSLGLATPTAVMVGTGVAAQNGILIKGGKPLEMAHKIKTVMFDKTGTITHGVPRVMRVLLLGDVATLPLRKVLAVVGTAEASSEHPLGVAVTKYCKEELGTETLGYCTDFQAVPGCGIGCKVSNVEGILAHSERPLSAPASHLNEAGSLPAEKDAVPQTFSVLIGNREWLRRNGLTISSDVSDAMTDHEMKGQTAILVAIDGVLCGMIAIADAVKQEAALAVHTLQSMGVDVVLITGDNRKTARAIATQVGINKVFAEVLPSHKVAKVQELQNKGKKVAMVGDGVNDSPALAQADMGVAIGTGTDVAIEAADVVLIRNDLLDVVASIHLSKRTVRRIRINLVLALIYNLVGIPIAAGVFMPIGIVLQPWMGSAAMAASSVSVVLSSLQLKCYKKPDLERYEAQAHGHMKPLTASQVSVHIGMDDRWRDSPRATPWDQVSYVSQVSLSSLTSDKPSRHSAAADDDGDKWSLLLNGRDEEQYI
UniProt Q8WYN0: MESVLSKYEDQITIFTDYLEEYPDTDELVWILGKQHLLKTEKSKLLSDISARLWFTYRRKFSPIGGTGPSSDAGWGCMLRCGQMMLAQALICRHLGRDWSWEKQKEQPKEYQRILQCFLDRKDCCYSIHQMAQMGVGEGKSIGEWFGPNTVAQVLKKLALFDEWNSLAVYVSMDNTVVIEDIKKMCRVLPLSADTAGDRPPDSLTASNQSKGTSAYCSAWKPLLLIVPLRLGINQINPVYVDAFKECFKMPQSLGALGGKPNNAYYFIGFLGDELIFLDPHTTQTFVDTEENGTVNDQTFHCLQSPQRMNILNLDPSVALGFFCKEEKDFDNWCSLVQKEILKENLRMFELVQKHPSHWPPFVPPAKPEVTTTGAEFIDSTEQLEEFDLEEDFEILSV

Legend:
Test in all cases: log2 fold change, soluble protein after heating vs DMSO (PISA); higher = thermal stabilisation; K562 cells, 10 uM, 30 min; active = over 0.2 and 3.5 SD of the protein, either way, in both replicates (recomputed)
[1] = compound: CN(C)CC(=O)Nc1ccc2[nH]c(=O)c3ccccc3c2c1
In short: (§1)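 Quantification of soluble protein used TMTpro 16plex LC-MS/MS, with channel sums equalised. Samples were the supernatant after 21,000xg for 90 min of pooled aliquots from K562 cells (2×10^6 cells/mL) treated with 10 μM compound for 30 min, heated for 3 min over 48°C-58°C, and extracted in PBS with 0.5% NP-40 at 4°C. Values, from duplicates, describe thermal stability against control samples on a log2 fold-change scale.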

defactinib = compound: CNC(=O)c1ccc(Nc2ncc(C(F)(F)F)c(NCc3nccnc3N(C)S(C)(=O)=O)n2)cc1 [defactinib]
In short: as §1

[2] = compound: COC(=O)[C@H](CCSC)NC(=O)C1=C(C=C(C=C1)NC[C@H](CS)N)C2=CC=CC=C2
In short: as §1

volasertib = compound: CC[C@@H]1C(=O)N(C)c2cnc(Nc3ccc(C(=O)N[C@H]4CC[C@H](N5CCN(CC6CC6)CC5)CC4)cc3OC)nc2N1C(C)C [volasertib]
In short: as §1

[3] = compound: CCn1c(C(=O)N(C2CC2)C2CC2)cc2c3c(ncn3C)c(Nc3cc(C)n(C)n3)nc21
In short: as §1

rosiglitazone = compound: CN(CCOC1=CC=C(C=C1)C[C@H]2C(=O)NC(=O)S2)C3=CC=CC=N3 (racemic) [rosiglitazone]
In short: as §1

alvocidib = compound: CN1CC[C@H](c2c(O)cc(O)c3c(=O)cc(-c4ccccc4Cl)oc23)[C@H](O)C1 [alvocidib]
In short: as §1

[4] = compound: CNC(=O)C1=CC=CC=C1NC2=NC(=NC=C2Cl)NC3=C(C=C(C=C3)N4CCOCC4)OC
In short: as §1

[5] = compound: CC[C@@H]1C(=O)N(C)c2cnc(Nc3ccc(C(=O)NC4CCN(C)CC4)cc3OC)nc2N1C1CCCC1
In short: as §1

epoxomicin = compound: CC[C@H](C)[C@@H](C(=O)N[C@@H]([C@@H](C)O)C(=O)N[C@@H](CC(C)C)C(=O)[C@]1(CO1)C)NC(=O)[C@H]([C@@H](C)CC)N(C)C(=O)C [epoxomicin]
In short: as §1

[6] = compound: CCn1cc(-c2ccnc3[nH]c(-c4cccc(CN(C)C)c4)cc23)c(-c2ccc(NC(=O)N(C)C)cc2)n1
In short: as §1

[7] = compound: CN1C2=C(C3=C1C(=O)N(N=C3)CC4=CC(=CC=C4)N)SC(=C2)S(=O)C
In short: as §1

[8] = compound: CN1CCC(CNc2ccc3ncc(-c4cccc(OC(F)(F)F)c4)n3n2)CC1
In short: as §1

saracatinib = compound: CN1CCN(CCOc2cc(OC3CCOCC3)c3c(Nc4c(Cl)ccc5c4OCO5)ncnc3c2)CC1 [saracatinib]
In short: as §1

sotrastaurin = compound: CN1CCN(c2nc(C3=C(c4c[nH]c5ccccc45)C(=O)NC3=O)c3ccccc3n2)CC1 [sotrastaurin]
In short: as §1

Tubastatin A = compound: CN1CCc2c(c3ccccc3n2Cc2ccc(C(=O)NO)cc2)C1 [Tubastatin A]
In short: as §1

rucaparib = compound: CNCc1ccc(-c2[nH]c3cc(F)cc4c3c2CCNC4=O)cc1 [rucaparib]
In short: as §1

[9] = compound: CNc1nc(-c2ccc3c(N)n[nH]c3c2)cc(N2C[C@@H](C(=O)NC3CCCCC3)CC[C@H]2C)n1
In short: as §1

encorafenib = compound: COC(=O)N[C@@H](C)CNc1nccc(-c2cn(C(C)C)nc2-c2cc(Cl)cc(NS(C)(=O)=O)c2F)n1 [encorafenib]
In short: as §1

[10] = compound: CC[C@H](C)N1C=C(C2=C(C=C(C=C21)C3=CN=C(C=C3)N4CCNCC4)C(=O)NCC5=C(C=C(NC5=O)C)C)C
In short: as §1

Target	log2 fold change [1]	log2 fold change (defactinib)	log2 fold change [2]	log2 fold change (volasertib)	log2 fold change [3]	log2 fold change (rosiglitazone)	log2 fold change (alvocidib)	log2 fold change [4]	log2 fold change [5]	log2 fold change (epoxomicin)	log2 fold change [6]	log2 fold change [7]	log2 fold change [8]	log2 fold change (saracatinib)	log2 fold change (sotrastaurin)	log2 fold change (Tubastatin A)	log2 fold change (rucaparib)	log2 fold change [9]	log2 fold change (encorafenib)	log2 fold change [10]
ARL6 isoform 2 (UniProt Q9H0F7)	inactive: -0.005	inactive: 0.022	inactive: 0.108	–	–	–	–	–	–	–	–	–	–	–	–	–	–	–	–	–
ATP2C1 isoform 3 (UniProt P98194)	–	–	–	inactive: -0.013	inactive: 0.146	inactive: 0.034	inactive: -0.149	inactive: -0.018	–	–	–	–	–	–	–	–	–	–	–	–
ATP1B2 (UniProt P14415)	inactive: 0.044	inactive: -0.104	inactive: 0.006	inactive: -0.034	inactive: 0.035	inactive: 0	inactive: 0.121	inactive: -0.114	inactive: -0.009	inactive: -0.109	inactive: -0.002	inactive: -0.004	inactive: 0.004	inactive: -0.083	inactive: -0.003	inactive: -0.018	inactive: -0.012	inactive: -0.066	inactive: -0.022	–
ATG2A (UniProt Q2TAZ0)	–	–	–	–	–	–	–	–	–	inactive: -0.209	inactive: 0.14	–	inactive: 0.211	–	–	–	–	–	–	–
ASH2L (UniProt Q9UBL3)	inactive: -0.003	inactive: -0.12	inactive: -0.009	active: -0.327	–	–	–	inactive: 0.023	inactive: -0.117	inactive: 0.041	inactive: -0.012	inactive: 0.001	inactive: -0.012	inactive: 0.023	inactive: -0.025	inactive: 0.052	inactive: 0.012	inactive: -0.036	inactive: 0.037	inactive: 0.079
ARPP19 (UniProt P56211)	inactive: 0.032	inactive: -0.089	inactive: 0.002	inactive: 0.016	–	–	–	inactive: -0.015	inactive: 0.013	inactive: 0.041	inactive: -0.052	inactive: 0.069	inactive: -0.041	inactive: -0.002	inactive: 0.01	inactive: -0.047	inactive: -0.05	inactive: -0.056	inactive: -0.016	inactive: -0.01
ARSK (UniProt Q6UWY0)	inactive: 0.05	inactive: 0.018	inactive: -0.053	–	inactive: 0.105	inactive: 0.018	inactive: 0.001	inactive: 0.042	–	inactive: 0.045	–	–	–	–	–	–	–	–	–	inactive: 0.057
ARRB1 isoform 2 (UniProt P49407)	inactive: 0.062	inactive: -0.11	inactive: 0.06	inactive: 0.02	inactive: 0.026	inactive: -0.02	inactive: 0.145	inactive: -0.105	inactive: -0.051	–	inactive: -0.09	inactive: 0.044	inactive: -0.086	inactive: 0.05	–	inactive: -0.071	inactive: -0.052	inactive: -0.116	inactive: 0.035	–
ASXL1 (UniProt Q8IXJ9)	–	–	–	inactive: 0.191	inactive: -0.094	inactive: -0.056	inactive: 0.152	inactive: -0.163	inactive: 0.003	inactive: 0.131	–	–	–	–	inactive: 0.068	inactive: 0.285	inactive: 0.037	–	inactive: 0.111	–
ARSA (UniProt P15289)	inactive: 0.081	inactive: -0.079	inactive: 0.066	inactive: 0.025	inactive: -0.134	inactive: -0.17	inactive: -0.07	inactive: 0.001	–	inactive: -0.003	inactive: -0.007	inactive: 0.022	inactive: -0.057	inactive: -0.032	inactive: 0.06	inactive: -0.058	–	inactive: -0.035	–	inactive: 0.107
ARL13B (UniProt Q3SXY8)	inactive: -0.088	inactive: 0.035	inactive: -0.039	–	inactive: -0.067	inactive: 0.042	–	inactive: -0.021	inactive: 0.025	inactive: 0.069	inactive: -0.091	inactive: -0.008	inactive: -0.017	inactive: 0.091	inactive: 0.16	inactive: -0.104	inactive: 0.092	inactive: 0.004	inactive: 0.049	inactive: -0.022
ATG14 (UniProt Q6ZNE5)	–	–	–	inactive: -0.017	inactive: -0.04	inactive: -0.223	–	inactive: 0.032	inactive: 0.102	–	–	–	–	–	inactive: -0.015	–	inactive: -0.236	–	inactive: -0.247	–
ATF7 isoform 6 (UniProt P17544)	inactive: 0.03	inactive: 0.063	inactive: -0.037	inactive: -0.014	–	–	–	inactive: -0.096	–	inactive: -0.028	–	inactive: -0.06	–	active: 0.477	inactive: -0.105	inactive: -0.088	–	inactive: 0.034	–	inactive: 0.041
ATF6 (UniProt P18850)	–	–	–	–	–	–	–	–	–	–	–	–	–	–	inactive: 0.037	–	–	–	–	–
ATP1B3 (UniProt P54709)	inactive: 0.012	inactive: -0.047	inactive: 0.034	inactive: 0.094	–	–	–	inactive: 0.004	inactive: 0.06	inactive: -0.033	inactive: -0.028	inactive: -0.063	inactive: 0.168	inactive: -0.019	inactive: 0.084	inactive: -0.014	inactive: -0.033	inactive: 0.016	inactive: -0.023	inactive: -0.022
ATP7B (UniProt P35670)	inactive: 0.024	inactive: -0.011	inactive: -0.021	inactive: -0.043	–	–	–	inactive: -0.019	inactive: -0.03	inactive: 0.103	inactive: -0.031	inactive: 0.034	inactive: 0.009	inactive: 0.069	inactive: 0.005	inactive: 0.01	inactive: -0.044	inactive: 0.005	inactive: 0.052	inactive: 0.06
ATP11A (UniProt P98196)	inactive: 0.031	inactive: -0.093	inactive: 0.017	inactive: 0.058	–	–	–	inactive: -0.002	inactive: 0.266	inactive: 0.001	inactive: -0.022	inactive: -0.083	inactive: 0.084	inactive: 0.082	inactive: 0.094	inactive: 0.007	inactive: 0.192	inactive: 0.044	inactive: 0.008	inactive: -0.094
ATG4A (UniProt Q8WYN0)	inactive: 0.034	inactive: -0.053	inactive: -0.007	–	–	–	inactive: -0.033	–	–	–	–	–	–	–	–	–	–	–	–	–

Looked up above.
Entry of ASXL1 (UniProt Q8IXJ9) under log2 fold change [4]: inactive: -0.163
Entry of ATP7B (UniProt P35670) under log2 fold change [9]: inactive: 0.005
